Experiment: general procedure: Fmoc solid-phase peptide synthesis; Fmoc-Rink Amide MBHA resin (0.6 mmol/g, 200-400 mesh; Chem-Impex International); HOBt/DIC
Details: whole synthesis, analytical HPLC (Waters Breeze 2), 1 mL/min, scale of the general procedure 100 mg resin

Substance: Ac-KLTWQELYQLKYKGI
- final HPLC purity: 99.1%

Source: patent publication US11866474B2 (UNIVERSITY OF SOUTH FLORIDA, priority 2021, dated 2024)
